System: SiHa (human cervical carcinoma) cells
Assay: Cytotoxic activity, WST-1 assay, SiHa
Format: cell-based
Conditions: 72 h, read-out: IC50 SiHa
Description: In vitro anticancer assays were performed in triplicate for the determination of mean values. The human cervical carcinoma SiHa, murine melanoma B16F10, chronic myelogenous leukemia (CML) K562, and Chang cell lines were cultured in minimum essential medium of Eagle at 37 °C in a […] atmosphere with 10% fetal bovine serum, 2 mM L-glutamine and 1% penicillin/streptomycin. Cells were trypsinized and seeded at a density of 5 × 10^4 cells/mL in a 96-well plate and incubated at 37 °C, […] atmosphere for 24 h. Thereafter the cells were treated with azetidin-2-one derivatives (dissolved in DMSO) at various concentrations between 312 nM–10 μM, and re-incubated for further 72 h. Wells containing the equal volume of the vehicle DMSO (1% v/v) were used as background (negative control). The culture medium was then removed and the cells washed with 100 μL phosphate buffered saline (PBS); then 10 μL WST-1 (Roche, USA) was added. Cells were incubated for 2 h in absence of light at 37°C, and absorbance was read subsequently. […] Afterwards, these values were used to assess half maximal inhibitory concentration (IC50) using Graph-Pad Prism software.

SMILES: COc1cc2c(c(OC)c1OC)-c1ccc(OC)c(=O)cc1[C@@H](NC(C)=O)CC2 [Colchicine, reference compound]
- IC50: 2.5 ± 0.5 µM
